Some of the results follow.
Key:
Assay in all cases: log2 fold change, soluble protein after heating vs DMSO (PISA); higher = thermal stabilisation; K562 cells, 10 uM, 30 min; active = over 0.2 and 3.5 SD of the protein, either way, in both replicates (recomputed)
bafetinib = compound: Cc1ccc(NC(=O)c2ccc(CN3CC[C@H](N(C)C)C3)c(C(F)(F)F)c2)cc1Nc1nccc(-c2cncnc2)n1 [bafetinib]
Method in brief: (§1)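 Values are thermal stability changes relative to control samples and are taken from duplicates. They are stated as log2 fold changes. Before quantification by TMTpro 16plex LC-MS/MS with equalised channel sums, K562 cells at 2×10^6 cells/mL were treated with 10 μM compound for 30 min, heated in aliquots for 3 min across 48°C-58°C, pooled, extracted in PBS with 0.5% NP-40 at 4°C, and centrifuged at 21,000xg for 90 min to give the soluble supernatant.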

Chains of the proteins cited; added tags and fusions are not shown. Lines headed by an entry give the natural chain unless they say otherwise; changes in a name come on top.
UniProt Q5SW96: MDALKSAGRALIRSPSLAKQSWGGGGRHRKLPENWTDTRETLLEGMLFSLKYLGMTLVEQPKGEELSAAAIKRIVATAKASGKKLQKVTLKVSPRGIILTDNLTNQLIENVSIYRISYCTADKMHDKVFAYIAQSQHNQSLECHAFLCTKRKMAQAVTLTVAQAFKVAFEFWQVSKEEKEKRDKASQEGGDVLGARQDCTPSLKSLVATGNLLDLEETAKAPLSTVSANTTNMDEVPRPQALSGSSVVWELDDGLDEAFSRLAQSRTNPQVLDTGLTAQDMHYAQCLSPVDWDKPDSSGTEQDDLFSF
UniProt Q96KR4: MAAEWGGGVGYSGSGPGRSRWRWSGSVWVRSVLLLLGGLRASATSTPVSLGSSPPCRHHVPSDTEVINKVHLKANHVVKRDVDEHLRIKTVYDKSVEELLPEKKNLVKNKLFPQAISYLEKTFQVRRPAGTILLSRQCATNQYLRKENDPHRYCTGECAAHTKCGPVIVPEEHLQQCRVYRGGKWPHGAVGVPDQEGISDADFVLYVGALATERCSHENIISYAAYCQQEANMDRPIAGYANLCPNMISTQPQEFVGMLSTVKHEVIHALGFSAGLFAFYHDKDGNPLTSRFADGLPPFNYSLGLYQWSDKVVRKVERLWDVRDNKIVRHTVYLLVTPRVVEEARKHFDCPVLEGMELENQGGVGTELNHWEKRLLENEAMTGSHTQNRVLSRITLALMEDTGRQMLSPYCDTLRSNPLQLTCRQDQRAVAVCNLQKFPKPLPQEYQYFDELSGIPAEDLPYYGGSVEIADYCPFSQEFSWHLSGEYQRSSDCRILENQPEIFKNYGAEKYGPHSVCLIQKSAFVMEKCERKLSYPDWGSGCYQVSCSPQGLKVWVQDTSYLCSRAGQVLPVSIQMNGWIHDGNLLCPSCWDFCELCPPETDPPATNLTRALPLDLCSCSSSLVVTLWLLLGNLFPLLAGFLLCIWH
UniProt Q7Z4F1: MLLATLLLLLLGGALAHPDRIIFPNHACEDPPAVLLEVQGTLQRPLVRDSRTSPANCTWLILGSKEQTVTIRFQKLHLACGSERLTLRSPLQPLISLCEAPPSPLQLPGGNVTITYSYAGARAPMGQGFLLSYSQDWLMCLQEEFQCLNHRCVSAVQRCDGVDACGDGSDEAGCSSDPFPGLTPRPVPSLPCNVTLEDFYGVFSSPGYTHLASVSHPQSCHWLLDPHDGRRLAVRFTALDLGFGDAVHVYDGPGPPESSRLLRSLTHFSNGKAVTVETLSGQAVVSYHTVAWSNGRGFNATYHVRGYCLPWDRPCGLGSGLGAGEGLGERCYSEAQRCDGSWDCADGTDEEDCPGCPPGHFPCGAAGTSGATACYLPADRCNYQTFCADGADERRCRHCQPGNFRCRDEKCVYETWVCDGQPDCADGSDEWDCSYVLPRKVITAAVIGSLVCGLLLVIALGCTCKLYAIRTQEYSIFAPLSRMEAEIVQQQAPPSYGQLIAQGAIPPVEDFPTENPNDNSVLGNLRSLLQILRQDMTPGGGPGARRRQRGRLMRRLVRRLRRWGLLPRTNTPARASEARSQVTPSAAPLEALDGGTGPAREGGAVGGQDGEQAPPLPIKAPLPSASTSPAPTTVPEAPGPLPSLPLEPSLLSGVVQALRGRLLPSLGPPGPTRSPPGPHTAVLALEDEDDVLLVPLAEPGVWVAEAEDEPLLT
UniProt O95214: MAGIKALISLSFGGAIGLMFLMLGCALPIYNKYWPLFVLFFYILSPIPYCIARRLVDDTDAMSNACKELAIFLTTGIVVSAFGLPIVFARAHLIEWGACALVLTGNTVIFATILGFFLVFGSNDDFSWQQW
UniProt P24043: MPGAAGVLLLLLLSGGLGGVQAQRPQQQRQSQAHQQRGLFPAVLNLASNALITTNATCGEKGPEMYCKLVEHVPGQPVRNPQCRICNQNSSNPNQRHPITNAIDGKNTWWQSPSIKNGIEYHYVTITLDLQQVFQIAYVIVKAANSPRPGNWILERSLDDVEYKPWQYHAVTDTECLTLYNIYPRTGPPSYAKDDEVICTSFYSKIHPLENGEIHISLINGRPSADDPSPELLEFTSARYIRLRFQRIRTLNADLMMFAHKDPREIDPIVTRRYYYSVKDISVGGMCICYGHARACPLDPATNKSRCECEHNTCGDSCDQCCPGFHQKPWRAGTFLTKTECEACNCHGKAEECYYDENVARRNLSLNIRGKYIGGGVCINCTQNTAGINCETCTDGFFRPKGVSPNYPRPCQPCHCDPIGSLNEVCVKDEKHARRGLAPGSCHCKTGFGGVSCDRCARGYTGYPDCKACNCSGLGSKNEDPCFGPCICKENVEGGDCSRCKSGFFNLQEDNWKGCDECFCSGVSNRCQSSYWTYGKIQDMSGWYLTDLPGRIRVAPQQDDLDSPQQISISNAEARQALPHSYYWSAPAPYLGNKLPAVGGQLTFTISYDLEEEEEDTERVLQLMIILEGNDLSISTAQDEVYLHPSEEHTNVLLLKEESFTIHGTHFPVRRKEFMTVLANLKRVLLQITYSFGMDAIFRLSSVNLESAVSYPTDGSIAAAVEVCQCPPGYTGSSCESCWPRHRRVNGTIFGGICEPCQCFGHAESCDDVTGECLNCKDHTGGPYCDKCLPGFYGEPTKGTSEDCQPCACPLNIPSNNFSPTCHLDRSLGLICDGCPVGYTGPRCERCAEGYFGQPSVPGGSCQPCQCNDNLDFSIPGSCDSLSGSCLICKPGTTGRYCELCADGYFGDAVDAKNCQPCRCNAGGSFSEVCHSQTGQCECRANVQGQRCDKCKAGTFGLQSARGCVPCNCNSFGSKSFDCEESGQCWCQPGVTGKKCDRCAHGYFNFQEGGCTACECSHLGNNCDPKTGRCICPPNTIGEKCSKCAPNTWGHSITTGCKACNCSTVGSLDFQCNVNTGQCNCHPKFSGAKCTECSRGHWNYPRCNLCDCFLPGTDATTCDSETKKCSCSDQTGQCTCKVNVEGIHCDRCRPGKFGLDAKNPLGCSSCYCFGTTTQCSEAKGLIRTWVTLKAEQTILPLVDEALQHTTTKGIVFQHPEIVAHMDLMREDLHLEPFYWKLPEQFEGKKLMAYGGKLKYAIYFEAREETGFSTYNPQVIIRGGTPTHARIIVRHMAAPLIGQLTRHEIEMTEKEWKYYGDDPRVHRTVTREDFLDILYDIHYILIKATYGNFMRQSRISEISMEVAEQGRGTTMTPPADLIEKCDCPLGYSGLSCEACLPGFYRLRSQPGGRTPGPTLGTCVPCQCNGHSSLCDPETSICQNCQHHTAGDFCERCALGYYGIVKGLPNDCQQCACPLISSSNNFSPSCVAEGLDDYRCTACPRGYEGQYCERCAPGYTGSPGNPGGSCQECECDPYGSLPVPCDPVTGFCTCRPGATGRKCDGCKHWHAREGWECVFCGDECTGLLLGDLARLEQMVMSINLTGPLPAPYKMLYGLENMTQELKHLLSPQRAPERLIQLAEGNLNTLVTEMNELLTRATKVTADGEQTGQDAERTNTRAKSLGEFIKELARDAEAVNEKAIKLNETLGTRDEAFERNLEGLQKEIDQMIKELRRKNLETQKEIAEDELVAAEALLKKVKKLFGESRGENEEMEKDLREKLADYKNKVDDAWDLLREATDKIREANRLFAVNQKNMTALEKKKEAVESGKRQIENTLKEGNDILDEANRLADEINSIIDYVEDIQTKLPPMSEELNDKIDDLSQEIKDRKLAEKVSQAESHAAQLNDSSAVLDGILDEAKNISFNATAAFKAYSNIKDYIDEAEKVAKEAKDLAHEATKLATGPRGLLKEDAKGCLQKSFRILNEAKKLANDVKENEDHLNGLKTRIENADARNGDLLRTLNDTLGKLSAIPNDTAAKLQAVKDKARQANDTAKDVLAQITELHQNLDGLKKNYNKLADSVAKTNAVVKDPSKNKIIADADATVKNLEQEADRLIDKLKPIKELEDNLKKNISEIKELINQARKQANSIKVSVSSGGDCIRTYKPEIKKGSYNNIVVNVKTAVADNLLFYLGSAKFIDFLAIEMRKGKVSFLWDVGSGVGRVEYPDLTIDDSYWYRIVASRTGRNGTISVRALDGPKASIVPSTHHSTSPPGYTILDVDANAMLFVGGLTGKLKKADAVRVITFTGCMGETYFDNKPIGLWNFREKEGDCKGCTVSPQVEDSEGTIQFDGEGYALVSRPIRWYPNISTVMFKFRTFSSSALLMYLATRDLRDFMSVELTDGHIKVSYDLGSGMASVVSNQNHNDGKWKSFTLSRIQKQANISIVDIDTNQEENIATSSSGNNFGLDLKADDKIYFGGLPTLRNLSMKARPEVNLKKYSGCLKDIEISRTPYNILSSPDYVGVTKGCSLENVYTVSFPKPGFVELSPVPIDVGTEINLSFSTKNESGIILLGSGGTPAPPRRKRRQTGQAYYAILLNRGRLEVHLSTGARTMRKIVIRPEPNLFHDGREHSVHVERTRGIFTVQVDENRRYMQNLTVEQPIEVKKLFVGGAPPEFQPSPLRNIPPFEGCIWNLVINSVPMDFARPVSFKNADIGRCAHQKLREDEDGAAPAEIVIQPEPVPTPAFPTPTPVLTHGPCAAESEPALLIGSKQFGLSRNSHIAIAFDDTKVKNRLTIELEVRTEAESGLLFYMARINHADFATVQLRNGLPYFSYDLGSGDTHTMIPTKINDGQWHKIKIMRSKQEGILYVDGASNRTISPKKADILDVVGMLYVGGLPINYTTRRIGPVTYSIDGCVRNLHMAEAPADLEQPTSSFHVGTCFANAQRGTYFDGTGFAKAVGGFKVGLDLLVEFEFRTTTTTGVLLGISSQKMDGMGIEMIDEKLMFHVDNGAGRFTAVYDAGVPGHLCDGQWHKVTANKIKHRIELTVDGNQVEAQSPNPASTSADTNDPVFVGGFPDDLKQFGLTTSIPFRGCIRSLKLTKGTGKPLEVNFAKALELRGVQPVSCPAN
UniProt O75581: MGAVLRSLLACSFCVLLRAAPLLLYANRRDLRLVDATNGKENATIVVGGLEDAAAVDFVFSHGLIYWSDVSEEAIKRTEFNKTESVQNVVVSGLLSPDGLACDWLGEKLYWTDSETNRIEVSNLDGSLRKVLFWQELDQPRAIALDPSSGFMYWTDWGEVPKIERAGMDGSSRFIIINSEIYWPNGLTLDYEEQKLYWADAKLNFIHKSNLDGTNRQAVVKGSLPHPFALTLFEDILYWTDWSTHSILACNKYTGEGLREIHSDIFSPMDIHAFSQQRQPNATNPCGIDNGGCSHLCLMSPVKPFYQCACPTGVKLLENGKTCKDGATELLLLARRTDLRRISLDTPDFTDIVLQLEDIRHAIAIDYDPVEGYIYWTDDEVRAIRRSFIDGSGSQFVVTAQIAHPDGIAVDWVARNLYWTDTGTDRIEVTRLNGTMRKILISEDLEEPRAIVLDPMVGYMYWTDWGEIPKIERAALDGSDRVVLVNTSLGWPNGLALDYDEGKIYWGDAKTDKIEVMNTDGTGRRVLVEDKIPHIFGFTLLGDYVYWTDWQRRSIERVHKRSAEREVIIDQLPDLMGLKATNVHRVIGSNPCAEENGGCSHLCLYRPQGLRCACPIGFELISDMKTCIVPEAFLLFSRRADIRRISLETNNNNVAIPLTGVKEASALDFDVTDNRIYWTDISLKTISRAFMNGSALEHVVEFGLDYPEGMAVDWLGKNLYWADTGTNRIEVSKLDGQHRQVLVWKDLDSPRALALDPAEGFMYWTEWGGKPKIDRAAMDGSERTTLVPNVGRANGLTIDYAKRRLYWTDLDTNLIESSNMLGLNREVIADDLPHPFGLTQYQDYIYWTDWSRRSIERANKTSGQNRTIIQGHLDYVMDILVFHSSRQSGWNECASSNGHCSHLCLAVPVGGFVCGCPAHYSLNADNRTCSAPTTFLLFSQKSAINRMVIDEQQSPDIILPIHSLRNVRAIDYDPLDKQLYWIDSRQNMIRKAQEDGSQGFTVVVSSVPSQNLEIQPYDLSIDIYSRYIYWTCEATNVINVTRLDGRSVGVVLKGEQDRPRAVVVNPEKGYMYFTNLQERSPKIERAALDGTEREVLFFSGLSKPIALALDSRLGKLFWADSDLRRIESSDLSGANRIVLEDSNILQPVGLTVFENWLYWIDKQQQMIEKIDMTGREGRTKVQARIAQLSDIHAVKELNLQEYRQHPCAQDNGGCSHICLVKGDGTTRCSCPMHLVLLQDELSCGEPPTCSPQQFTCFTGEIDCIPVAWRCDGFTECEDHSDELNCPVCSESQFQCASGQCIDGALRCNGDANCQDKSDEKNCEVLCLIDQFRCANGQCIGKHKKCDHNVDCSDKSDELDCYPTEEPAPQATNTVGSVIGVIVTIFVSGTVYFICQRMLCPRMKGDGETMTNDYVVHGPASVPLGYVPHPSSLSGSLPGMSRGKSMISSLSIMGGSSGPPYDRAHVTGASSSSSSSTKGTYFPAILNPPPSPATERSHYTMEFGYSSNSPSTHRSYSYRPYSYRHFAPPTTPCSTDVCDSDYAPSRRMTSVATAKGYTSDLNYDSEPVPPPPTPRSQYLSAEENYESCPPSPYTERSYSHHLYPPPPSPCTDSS

[1] = compound: Cc1cccc(CC(=O)N2CCc3c2ccc(-c2cn(C)c4ncnc(N)c24)c3F)n1
Method in brief: as §1

nilotinib = compound: Cc1cn(-c2cc(NC(=O)c3ccc(C)c(Nc4nccc(-c5cccnc5)n4)c3)cc(C(F)(F)F)c2)cn1 [nilotinib]
Method in brief: as §1

[2] = compound: Cc1nc(Nc2n[nH]c3c2CN(C(=O)N[C@H](CN(C)C)c2ccccc2)C3(C)C)c2sccc2n1
Method in brief: as §1

dasatinib = compound: Cc1nc(Nc2ncc(C(=O)Nc3c(C)cccc3Cl)s2)cc(N2CCN(CCO)CC2)n1 [dasatinib]
Method in brief: as §1

[3] = compound: Cc1ncc(-c2ccnc(Nc3ccc(S(C)(=O)=O)cc3)n2)n1C(C)C
Method in brief: as §1

[4] = compound: Cn1cc(-c2ccc3c(c2)CCN3C(=O)Cc2cccc(C(F)(F)F)c2)c2c(N)ncnc21
Method in brief: as §1

[5] = compound: Cn1cc(-c2ccc3nnc(C(F)(F)c4ccc5ncccc5c4)n3n2)cn1
Method in brief: as §1

tipifarnib = compound: Cn1cncc1[C@@](N)(c1ccc(Cl)cc1)c1ccc2c(c1)c(-c1cccc(Cl)c1)cc(=O)n2C [tipifarnib]
Method in brief: as §1

mubritinib = compound: FC(F)(F)c1ccc(/C=C/c2nc(COc3ccc(CCCCn4ccnn4)cc3)co2)cc1 [mubritinib]
Method in brief: as §1

[6] = compound: NC(=O)Nc1cc(-c2cccc(F)c2)sc1C(=O)N[C@H]1CCCNC1
Method in brief: as §1

[7] = compound: NC(=O)c1cnc(N[C@@H]2CCCC[C@@H]2N)nc1Nc1cccc(-n2nccn2)c1
Method in brief: as §1

[8] = compound: NC1(c2ccc(-c3nc4ccn5c(=O)[nH]nc5c4cc3-c3ccccc3)cc2)CCC1
Method in brief: as §1

[9] = compound: NCC(=O)Nc1ccc(-n2nc(C(F)(F)F)cc2-c2ccc3c(ccc4ccccc43)c2)cc1
Method in brief: as §1

entinostat = compound: Nc1ccccc1NC(=O)c1ccc(CNC(=O)OCc2cccnc2)cc1 [entinostat]
Method in brief: as §1

vorinostat = compound: O=C(CCCCCCC(=O)Nc1ccccc1)NO [vorinostat]
Method in brief: as §1

citarinostat = compound: O=C(CCCCCCNC(=O)c1cnc(N(c2ccccc2)c2ccccc2Cl)nc1)NO [citarinostat]
Method in brief: as §1

silmitasertib = compound: O=C(O)c1ccc2c(c1)nc(Nc1cccc(Cl)c1)c1ccncc12 [silmitasertib]
Method in brief: as §1

[10] = compound: O=C1NC(=O)C(c2cnc3ccccn23)=C1c1cn2c3c(cc(F)cc13)CN(C(=O)N1CCCCC1)CC2
Method in brief: as §1

[11] = compound: c1cc(OCCN2CCCCC2)cc(-c2n[nH]c3ccc(-c4nnc[nH]4)cc23)c1
Method in brief: as §1

Measured: log2 fold change

LIN7C (UniProt Q9NUP9)
inactive: bafetinib -0.059 | [1] -0.001 | nilotinib 0.048 | [2] -0.039 | dasatinib -0.01 | [3] -0.024 | [4] -0.012 | [5] -0.042 | tipifarnib 0.061 | mubritinib 0.099 | [6] -0.117 | [7] 0.002 | [8] -0.052 | [9] -0.012 | entinostat 0.004 | vorinostat 0.027 | citarinostat 0.019 | silmitasertib -0.045 | [10] -0.052 | [11] -0.06

LMO4 (UniProt P61968)
inactive: bafetinib -0.09 | [1] 0.112 | dasatinib 0.122 | [4] 0.04 | [5] -0.233 | tipifarnib 0.081 | mubritinib 0.141 | [7] -0.031 | [8] -0.111 | vorinostat -0.014 | citarinostat 0.128 | silmitasertib 0.015 | [11] 0.116

LAS1L (UniProt Q9Y4W2)
inactive: bafetinib 0.187 | [1] -0.135 | dasatinib 0.091 | [4] -0.364 | [5] -0.035 | tipifarnib 0.272 | [6] 0.271 | [7] -0.122 | [9] 0.088 | entinostat 0.024 | vorinostat 0.078 | [10] 0.084

L1RE1 (UniProt Q9UN81)
inactive: bafetinib 0.151 | nilotinib 0.154 | [2] 0.043 | dasatinib 0.189 | [3] -0.003 | [4] -0.016 | [5] -0.122 | tipifarnib 0.088 | mubritinib 0.014 | [6] -0.079 | [7] 0.211 | [8] -0.004 | [9] 0.062 | entinostat -0.048 | citarinostat -0.206 | silmitasertib 0.199 | [10] -0.226 | [11] -0.194

LINS1 (UniProt Q8NG48)
inactive: bafetinib -0.062 | [5] -0.081 | mubritinib 0.157 | [6] 0.027 | [7] 0.024 | [8] -0.085 | entinostat 0.073 | silmitasertib -0.051 | [10] -0.038

LRFN1 (UniProt Q9P244)
inactive: bafetinib -0.017 | dasatinib -0.129 | [4] 0.178 | [5] 0.011 | tipifarnib -0.026 | [6] -0.14 | [9] -0.166 | entinostat 0.133 | citarinostat -0.06 | [10] 0.036 | [11] 0.716

LDLRAP1 (UniProt Q5SW96)
inactive: bafetinib -0.011 | [5] 0.14

LAMA5 (UniProt O15230)
inactive: [1] -0.061 | nilotinib -0.101 | [2] -0.047 | dasatinib 0.054 | [3] -0.149 | [4] -0.256 | mubritinib -0.303 | [7] -0.113 | [8] 0.198 | [9] -0.043 | vorinostat 0.015 | silmitasertib -0.131 | [10] 0.114

LRP8 (UniProt E9PP15)
inactive: bafetinib -0.372 | dasatinib 0.033 | [4] -0.057 | [5] -0.018 | tipifarnib 0.093 | mubritinib 0.088 | [6] 0.052 | [7] -0.104 | [8] -0.152 | [9] 0.083 | entinostat 0.07 | citarinostat 0.03 | silmitasertib 0.006 | [10] -0.089 | [11] -0.052

LIN7A (UniProt O14910)
inactive: bafetinib -0.015 | nilotinib -0.022 | [2] 0.039 | dasatinib -0.005 | [3] -0.044 | [4] -0.019 | [5] -0.025 | tipifarnib -0.132 | mubritinib -0.006 | [6] -0.082 | [7] 0.058 | [8] -0.069 | [9] -0.065 | entinostat 0.003 | citarinostat -0.024 | silmitasertib 0.033 | [10] -0.119 | [11] -0.063

LDHC (UniProt P07864)
inactive: bafetinib 0.01 | nilotinib -0.019 | [2] -0.012 | [3] 0.009 | [6] -0.032 | entinostat -0.026 | [10] 0.066

LMLN isoform 3 (UniProt Q96KR4)
inactive: bafetinib 0 | dasatinib -0.291 | tipifarnib 0.191 | [10] 0

LRRC42 (UniProt Q9Y546)
inactive: bafetinib -0.088 | [1] -0.035 | dasatinib -0.255 | [4] -0.053 | [5] -0.019 | [7] -0.353 | [9] -0.257 | vorinostat 0.037

LAPTM4B (UniProt Q86VI4)
inactive: bafetinib 0.024 | [1] -0.137 | mubritinib 0.017 | [6] -0.109 | [8] 0.116 | entinostat -0.126 | vorinostat -0.064 | citarinostat 0.092 | silmitasertib 0.025 | [11] -0.178

LIN28A (UniProt Q9H9Z2)
inactive: bafetinib 0.16 | [1] -0.026 | dasatinib 0.055 | [4] -0.097 | [6] 0.181 | entinostat -0.075 | vorinostat 0.136

LIMK1 (UniProt P53667)
inactive: bafetinib -0.05 | tipifarnib -0.089 | [6] -0.064 | entinostat 0.065 | [10] 0

LAPTM5 (UniProt Q13571)
inactive: bafetinib 0.103 | [1] 0.056 | dasatinib 0.05 | [4] -0.205 | [5] -0.161 | [7] -0.033 | vorinostat 0.042

Retrieved one by one from above, two records:
LAPTM5 (UniProt Q13571)
inactive: bafetinib 0.103 | [1] 0.056 | dasatinib 0.05 | [4] -0.205 | [5] -0.161 | [7] -0.033 | vorinostat 0.042

LRRC42 (UniProt Q9Y546)
inactive: bafetinib -0.088 | [1] -0.035 | dasatinib -0.255 | [4] -0.053 | [5] -0.019 | [7] -0.353 | [9] -0.257 | vorinostat 0.037

Following part

LRP10 (UniProt Q7Z4F1)
inactive: bafetinib -0.075 | nilotinib 0.041 | [2] -0.094 | dasatinib 0.099 | [3] -0.033 | [4] 0.08 | [5] 0.075 | tipifarnib 0.065 | mubritinib -0.014 | [6] -0.329 | [7] 0.065 | [8] -0.29 | entinostat 0.177 | silmitasertib 0.33 | [10] 0.271

LRRC41 (UniProt Q15345)
inactive: bafetinib -0.419 | tipifarnib 0.015 | [6] -0.108 | entinostat 0.256

LRRC14 (UniProt Q15048)
inactive: bafetinib -0.125 | nilotinib 0.026 | [2] -0.022 | dasatinib -0.086 | [3] 0.173 | tipifarnib 0.04 | mubritinib 0.245 | [7] 0.133 | [8] -0.014 | [9] -0.269 | citarinostat 0.022 | silmitasertib 0.022 | [11] -0.063

LCP2 (UniProt Q13094)
inactive: bafetinib -0.034 | [1] -0.02 | dasatinib -0.099 | [5] -0.057 | [6] -0.118 | [7] -0.036 | [9] -0.094 | entinostat 0.046 | vorinostat -0.059 | citarinostat 0.113 | [10] -0.062 | [11] -0.118

LEPROTL1 isoform 2 (UniProt O95214)
inactive: bafetinib 0.212 | nilotinib -0.067 | [2] 0.125 | dasatinib 0.012 | [3] -0.201 | [4] -0.064 | [5] -0.052 | tipifarnib 0.216 | mubritinib 0.083 | [7] -0.03 | [8] -0.248 | [9] 0.141 | citarinostat 0.051 | silmitasertib 0.123 | [11] -0.174

LAMA2 (UniProt P24043)
inactive: bafetinib -0.067 | nilotinib 0.157 | [2] -0.076 | [3] 0.102 | [4] -0.095 | mubritinib 0.245 | [8] -0.006 | silmitasertib -0.086

LRP6 (UniProt O75581)
inactive: bafetinib 0.089 | [1] 0.028 | dasatinib -0.011 | [4] 0.048 | tipifarnib 0.085 | [6] 0.218 | [7] -0.145 | entinostat -0.102 | vorinostat 0.017 | citarinostat -0.024 | [11] 0.243

From the supplement of paper PMC10849652
